# According to doi:10.1101/2024.01.10.575035:
# Protein sequences, listed by entry. Tags and fused reporters are not part of them.
# UniProt P42336: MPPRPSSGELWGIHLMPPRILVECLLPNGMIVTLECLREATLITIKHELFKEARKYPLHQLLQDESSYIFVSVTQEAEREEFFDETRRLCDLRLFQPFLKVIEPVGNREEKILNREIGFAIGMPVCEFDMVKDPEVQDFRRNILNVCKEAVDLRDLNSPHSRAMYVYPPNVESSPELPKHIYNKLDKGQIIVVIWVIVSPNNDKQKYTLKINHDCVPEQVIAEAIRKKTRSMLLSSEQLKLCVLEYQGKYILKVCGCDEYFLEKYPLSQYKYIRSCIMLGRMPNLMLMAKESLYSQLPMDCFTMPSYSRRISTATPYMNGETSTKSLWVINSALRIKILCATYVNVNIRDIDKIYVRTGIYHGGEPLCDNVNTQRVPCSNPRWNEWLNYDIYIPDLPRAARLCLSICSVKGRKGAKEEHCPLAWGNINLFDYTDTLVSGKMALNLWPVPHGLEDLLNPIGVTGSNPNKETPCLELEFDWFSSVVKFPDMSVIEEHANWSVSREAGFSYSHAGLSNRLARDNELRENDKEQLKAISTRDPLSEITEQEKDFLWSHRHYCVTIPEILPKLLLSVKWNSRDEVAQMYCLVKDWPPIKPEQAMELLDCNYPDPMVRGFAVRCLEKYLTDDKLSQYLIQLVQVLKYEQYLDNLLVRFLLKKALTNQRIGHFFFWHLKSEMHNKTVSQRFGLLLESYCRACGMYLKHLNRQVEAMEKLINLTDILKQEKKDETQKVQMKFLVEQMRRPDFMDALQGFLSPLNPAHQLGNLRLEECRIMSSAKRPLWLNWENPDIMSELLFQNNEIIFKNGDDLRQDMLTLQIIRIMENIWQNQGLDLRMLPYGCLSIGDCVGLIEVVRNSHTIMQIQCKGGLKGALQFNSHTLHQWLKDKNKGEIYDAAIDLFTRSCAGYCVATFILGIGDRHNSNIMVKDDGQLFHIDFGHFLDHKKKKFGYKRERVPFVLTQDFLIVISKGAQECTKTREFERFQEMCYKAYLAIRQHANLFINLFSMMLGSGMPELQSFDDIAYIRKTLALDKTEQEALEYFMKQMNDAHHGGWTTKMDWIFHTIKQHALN
# UniProt O00459: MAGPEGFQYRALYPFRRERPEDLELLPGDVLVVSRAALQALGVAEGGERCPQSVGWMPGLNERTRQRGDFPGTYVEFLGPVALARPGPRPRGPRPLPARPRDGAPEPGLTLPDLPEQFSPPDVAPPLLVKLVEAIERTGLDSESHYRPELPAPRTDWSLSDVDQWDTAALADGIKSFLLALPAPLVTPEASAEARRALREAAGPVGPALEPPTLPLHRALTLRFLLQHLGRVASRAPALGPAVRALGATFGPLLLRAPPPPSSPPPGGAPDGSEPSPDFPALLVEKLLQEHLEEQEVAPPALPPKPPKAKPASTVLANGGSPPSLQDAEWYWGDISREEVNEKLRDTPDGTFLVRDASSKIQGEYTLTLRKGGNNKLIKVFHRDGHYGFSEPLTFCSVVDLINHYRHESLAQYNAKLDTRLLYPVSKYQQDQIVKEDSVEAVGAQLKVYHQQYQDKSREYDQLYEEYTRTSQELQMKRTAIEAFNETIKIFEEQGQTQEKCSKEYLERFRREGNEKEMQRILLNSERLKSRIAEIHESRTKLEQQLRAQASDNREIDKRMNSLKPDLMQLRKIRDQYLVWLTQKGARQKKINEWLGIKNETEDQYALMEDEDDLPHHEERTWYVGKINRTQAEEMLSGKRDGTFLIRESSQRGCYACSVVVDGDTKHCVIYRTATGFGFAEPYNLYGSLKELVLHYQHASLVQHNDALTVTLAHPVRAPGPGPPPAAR
# Biological target: HA-tagged wild-type p110α (stably expressed in MDA-MB-231) (human) (UniProt P42336)
# Assay: affinity purification with mass spectrometry
substance,measurement,value
"p85β adaptor subunit (endogenous, MDA-MB-231) (from UniProt O00459 1-728)",binding,binds

# These are yes or no findings as the source states them, for the method shown. In cells and extracts the contact can be indirect. These calls come from enrichment with a bait or labelling near it, and not all partners need be listed.
